Results taken from doi:10.1101/506469.
These are yes or no findings as the source states them, for the method shown. Some binding calls cover weakened binding; strength is not graded here.

By UniProt entry, the sequences of proteins in these tests, tags left out. Where a name states a change or a piece, a line headed by the entry shows the natural chain unless it says otherwise. Chains listed by the source or under a name are the forms on record and can include a tag or linker.
human Nup98FG (aa. 214-480) (P52948, form named): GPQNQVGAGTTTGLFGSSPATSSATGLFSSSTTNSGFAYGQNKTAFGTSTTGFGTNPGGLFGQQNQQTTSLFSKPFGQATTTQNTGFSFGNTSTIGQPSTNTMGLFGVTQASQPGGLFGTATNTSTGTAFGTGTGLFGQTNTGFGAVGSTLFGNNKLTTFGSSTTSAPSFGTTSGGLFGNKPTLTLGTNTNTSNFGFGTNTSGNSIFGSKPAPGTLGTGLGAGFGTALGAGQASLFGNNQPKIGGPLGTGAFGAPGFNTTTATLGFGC

Target: T1, human Nup35N (aa. 1-160) (human) (UniProt Q8NFH5)
T1 sequence (chain, ATTO dye (ATTO390, 488 or 610) by maleimide on the added C-terminal cysteine): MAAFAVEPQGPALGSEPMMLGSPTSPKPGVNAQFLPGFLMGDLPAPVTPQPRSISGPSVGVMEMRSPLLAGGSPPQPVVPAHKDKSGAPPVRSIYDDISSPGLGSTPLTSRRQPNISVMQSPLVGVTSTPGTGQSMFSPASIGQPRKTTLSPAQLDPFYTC
Test: in vitro self-assembled particle assay

binding: binds
Substance: human Nup98FG (aa. 214-480) (from UniProt P52948 214-480) (domain or fragment)
